Results reported in the supplement of paper PMC10849652.
This is one part of the list.

Chains of the proteins cited; added tags and fusions are not shown. Lines headed by an entry give the natural chain unless they say otherwise; changes in a name come on top.
UniProt Q9BVA0, whole entry, looked up: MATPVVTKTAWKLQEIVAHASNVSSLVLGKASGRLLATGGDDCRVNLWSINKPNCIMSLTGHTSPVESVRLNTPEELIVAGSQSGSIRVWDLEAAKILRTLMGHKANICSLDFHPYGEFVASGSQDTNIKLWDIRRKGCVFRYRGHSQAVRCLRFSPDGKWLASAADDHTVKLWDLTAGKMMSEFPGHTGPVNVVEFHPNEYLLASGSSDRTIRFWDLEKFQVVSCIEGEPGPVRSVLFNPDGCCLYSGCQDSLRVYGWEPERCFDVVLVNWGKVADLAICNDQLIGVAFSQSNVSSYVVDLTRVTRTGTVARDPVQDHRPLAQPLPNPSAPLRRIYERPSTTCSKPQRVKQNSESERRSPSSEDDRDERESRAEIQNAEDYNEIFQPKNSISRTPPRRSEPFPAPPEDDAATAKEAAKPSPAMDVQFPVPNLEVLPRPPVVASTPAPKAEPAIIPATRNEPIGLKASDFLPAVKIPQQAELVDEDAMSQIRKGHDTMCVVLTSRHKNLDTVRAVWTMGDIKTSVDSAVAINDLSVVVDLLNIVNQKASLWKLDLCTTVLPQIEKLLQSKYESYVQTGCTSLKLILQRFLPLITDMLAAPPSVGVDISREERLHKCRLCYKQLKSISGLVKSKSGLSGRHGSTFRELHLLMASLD
UniProt Q13572: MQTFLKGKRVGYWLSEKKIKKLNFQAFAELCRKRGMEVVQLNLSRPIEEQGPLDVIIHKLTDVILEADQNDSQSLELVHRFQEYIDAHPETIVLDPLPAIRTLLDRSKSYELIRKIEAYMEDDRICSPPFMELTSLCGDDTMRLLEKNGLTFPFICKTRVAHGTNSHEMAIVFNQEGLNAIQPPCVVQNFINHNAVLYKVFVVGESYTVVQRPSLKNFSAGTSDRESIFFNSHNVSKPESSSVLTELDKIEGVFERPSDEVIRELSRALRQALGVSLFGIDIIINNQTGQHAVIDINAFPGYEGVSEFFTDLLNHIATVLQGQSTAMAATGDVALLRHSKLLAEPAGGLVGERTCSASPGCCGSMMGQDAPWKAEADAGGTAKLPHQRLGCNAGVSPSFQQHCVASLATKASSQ
UniProt Q96AB3: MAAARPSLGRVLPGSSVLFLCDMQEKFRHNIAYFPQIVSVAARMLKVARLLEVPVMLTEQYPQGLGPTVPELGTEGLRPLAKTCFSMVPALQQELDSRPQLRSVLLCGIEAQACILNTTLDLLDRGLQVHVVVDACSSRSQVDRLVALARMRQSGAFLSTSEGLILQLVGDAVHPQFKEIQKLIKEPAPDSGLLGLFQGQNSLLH
UniProt Q8N5M9: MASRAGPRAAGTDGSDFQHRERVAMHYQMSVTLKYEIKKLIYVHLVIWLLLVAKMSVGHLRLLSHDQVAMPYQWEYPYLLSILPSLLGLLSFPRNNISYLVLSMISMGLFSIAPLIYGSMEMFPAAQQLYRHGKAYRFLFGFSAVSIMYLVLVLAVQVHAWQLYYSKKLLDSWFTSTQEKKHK
UniProt Q8NC54: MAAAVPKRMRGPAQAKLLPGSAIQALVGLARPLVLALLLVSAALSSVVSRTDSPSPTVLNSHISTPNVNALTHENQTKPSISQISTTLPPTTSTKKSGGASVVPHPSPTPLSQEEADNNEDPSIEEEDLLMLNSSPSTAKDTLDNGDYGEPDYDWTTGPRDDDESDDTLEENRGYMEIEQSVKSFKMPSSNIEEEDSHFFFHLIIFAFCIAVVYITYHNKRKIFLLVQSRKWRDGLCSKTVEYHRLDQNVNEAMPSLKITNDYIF
UniProt Q86U28: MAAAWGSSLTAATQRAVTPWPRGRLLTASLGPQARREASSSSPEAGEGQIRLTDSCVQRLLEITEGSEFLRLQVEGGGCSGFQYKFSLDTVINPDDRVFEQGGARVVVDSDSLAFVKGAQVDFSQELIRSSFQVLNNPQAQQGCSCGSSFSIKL
UniProt Q15811: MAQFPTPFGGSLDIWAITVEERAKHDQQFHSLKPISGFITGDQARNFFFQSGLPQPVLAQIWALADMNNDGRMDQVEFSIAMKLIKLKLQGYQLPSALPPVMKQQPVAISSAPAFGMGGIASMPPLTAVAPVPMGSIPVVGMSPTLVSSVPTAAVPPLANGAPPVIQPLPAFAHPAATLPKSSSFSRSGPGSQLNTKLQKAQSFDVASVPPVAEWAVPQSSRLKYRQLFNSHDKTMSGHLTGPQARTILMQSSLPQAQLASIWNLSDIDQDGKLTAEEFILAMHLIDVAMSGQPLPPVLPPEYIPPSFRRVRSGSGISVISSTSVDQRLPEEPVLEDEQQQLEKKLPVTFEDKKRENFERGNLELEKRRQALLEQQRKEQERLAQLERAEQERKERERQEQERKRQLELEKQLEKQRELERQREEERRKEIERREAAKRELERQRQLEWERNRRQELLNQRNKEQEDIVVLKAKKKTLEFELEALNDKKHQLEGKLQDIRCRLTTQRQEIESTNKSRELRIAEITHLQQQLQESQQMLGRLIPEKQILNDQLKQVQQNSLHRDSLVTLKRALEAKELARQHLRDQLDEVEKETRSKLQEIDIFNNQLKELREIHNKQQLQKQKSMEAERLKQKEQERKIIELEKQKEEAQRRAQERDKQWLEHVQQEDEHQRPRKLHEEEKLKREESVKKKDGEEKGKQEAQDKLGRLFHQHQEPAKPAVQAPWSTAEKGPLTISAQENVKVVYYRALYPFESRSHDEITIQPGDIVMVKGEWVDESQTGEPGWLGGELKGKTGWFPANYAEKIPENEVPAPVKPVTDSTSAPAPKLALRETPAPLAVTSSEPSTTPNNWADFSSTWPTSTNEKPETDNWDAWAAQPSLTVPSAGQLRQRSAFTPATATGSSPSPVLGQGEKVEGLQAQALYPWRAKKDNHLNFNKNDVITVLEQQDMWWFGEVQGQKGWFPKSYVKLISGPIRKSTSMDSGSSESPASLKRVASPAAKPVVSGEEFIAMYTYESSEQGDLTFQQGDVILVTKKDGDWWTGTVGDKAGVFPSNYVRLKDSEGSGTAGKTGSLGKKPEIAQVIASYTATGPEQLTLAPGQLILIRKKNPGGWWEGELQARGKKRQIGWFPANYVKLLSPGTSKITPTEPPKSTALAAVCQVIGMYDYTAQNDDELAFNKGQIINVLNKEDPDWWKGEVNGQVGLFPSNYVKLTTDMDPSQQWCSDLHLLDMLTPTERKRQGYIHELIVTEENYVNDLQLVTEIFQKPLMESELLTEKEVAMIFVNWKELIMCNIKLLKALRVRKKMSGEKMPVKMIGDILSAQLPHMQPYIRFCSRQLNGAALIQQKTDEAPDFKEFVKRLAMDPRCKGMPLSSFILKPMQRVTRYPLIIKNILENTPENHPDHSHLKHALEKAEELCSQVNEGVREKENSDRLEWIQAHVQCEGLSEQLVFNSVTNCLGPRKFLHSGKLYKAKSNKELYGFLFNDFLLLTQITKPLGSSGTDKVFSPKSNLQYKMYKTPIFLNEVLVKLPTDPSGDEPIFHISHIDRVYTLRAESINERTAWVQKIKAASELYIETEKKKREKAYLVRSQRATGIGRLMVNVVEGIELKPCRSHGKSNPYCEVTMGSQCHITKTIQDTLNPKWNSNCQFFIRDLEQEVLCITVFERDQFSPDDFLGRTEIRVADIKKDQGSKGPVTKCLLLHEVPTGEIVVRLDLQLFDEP
UniProt Q9Y4H2: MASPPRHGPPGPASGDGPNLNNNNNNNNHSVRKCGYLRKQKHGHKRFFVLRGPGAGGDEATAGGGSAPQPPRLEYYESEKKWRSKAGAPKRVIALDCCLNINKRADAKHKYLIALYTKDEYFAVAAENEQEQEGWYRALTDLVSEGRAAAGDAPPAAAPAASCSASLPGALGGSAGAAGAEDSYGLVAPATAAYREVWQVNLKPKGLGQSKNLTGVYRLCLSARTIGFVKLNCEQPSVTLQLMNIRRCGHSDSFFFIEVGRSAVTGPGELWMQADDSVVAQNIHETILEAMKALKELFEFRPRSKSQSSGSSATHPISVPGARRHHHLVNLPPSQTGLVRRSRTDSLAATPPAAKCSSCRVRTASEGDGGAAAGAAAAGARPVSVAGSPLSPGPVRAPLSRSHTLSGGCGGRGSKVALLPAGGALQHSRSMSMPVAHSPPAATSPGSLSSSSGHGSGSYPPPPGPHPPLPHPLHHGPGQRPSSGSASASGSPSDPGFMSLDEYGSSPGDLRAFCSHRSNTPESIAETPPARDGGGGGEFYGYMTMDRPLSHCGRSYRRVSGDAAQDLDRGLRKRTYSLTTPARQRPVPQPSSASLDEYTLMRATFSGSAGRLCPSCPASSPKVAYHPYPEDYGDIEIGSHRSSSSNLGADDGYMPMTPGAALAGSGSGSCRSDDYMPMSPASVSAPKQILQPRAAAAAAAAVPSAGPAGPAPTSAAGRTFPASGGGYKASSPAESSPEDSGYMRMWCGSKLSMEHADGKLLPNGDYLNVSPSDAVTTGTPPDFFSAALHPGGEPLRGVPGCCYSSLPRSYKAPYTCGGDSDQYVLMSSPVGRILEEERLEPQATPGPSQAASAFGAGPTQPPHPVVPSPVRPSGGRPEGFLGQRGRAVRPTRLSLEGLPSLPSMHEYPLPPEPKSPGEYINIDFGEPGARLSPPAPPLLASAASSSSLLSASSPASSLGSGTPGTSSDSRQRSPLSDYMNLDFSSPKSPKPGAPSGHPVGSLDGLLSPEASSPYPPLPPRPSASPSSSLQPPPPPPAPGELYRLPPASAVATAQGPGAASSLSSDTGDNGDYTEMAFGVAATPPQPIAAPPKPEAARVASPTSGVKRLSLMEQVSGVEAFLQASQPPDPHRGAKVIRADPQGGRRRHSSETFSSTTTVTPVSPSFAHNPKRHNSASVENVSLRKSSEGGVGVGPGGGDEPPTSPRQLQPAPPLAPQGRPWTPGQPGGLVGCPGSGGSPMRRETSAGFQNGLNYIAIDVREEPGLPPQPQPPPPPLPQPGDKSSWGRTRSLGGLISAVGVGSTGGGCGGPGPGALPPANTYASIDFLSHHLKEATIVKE
UniProt Q6DN90: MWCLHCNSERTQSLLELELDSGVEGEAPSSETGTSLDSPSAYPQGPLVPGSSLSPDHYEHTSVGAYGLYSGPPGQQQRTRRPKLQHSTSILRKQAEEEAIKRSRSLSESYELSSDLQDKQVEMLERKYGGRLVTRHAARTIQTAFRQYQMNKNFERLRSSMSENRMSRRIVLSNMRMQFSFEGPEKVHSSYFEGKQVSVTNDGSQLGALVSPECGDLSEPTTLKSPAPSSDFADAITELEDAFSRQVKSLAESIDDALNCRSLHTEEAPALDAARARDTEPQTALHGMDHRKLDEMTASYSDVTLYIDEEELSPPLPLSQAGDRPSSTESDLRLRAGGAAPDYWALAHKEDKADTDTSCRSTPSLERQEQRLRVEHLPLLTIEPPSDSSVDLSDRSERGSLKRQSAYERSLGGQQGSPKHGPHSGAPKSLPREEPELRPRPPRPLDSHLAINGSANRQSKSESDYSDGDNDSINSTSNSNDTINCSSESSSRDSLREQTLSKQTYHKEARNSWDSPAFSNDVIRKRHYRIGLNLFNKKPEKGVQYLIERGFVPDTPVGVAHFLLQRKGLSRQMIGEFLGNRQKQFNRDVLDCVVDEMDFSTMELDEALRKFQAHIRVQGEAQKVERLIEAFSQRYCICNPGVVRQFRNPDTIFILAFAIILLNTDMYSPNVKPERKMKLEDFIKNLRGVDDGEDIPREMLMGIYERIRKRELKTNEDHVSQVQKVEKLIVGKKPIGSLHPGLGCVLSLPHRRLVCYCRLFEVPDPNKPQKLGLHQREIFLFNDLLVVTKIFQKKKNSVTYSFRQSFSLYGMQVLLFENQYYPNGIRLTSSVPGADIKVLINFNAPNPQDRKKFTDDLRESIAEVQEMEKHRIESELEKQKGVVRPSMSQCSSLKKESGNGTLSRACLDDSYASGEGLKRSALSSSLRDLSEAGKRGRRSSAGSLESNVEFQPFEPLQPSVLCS
UniProt O00180: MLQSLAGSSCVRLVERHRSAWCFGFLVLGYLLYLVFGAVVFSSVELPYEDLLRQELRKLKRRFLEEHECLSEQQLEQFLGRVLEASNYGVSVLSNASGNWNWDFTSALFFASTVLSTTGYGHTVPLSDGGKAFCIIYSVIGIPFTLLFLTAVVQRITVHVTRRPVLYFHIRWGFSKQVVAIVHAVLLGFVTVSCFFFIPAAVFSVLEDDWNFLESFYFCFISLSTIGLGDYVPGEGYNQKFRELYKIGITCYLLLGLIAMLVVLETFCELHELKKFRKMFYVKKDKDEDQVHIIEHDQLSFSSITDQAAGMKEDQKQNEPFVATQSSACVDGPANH
UniProt Q9Y287, whole entry, looked up: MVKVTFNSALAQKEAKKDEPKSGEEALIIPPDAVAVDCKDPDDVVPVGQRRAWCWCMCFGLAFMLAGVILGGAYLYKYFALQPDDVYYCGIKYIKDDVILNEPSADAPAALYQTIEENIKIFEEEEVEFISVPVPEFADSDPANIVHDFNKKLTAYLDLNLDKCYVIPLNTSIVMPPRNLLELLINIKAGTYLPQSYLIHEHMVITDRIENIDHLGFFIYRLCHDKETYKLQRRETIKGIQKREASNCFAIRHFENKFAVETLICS

Columns and labels:
Test in all cases: log2 fold change, soluble protein after heating vs DMSO (PISA); higher = thermal stabilisation; K562 lysate, 10 uM; active = over 0.2 and 3.5 SD of the protein, either way, in both replicates (recomputed)
ibrutinib = compound: C=CC(=O)N1CCC[C@@H](n2nc(-c3ccc(Oc4ccccc4)cc3)c3c(N)ncnc32)C1 [ibrutinib]
How it was run: (§1)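 K562 pellets were dounce-homogenised in PBS pH 7.4 with 1 mM MgCl2, and the crude extract at 1 mg/mL protein was treated with 10 μM compound for 30 min. Aliquots were heated for 3 min across 48°C-58°C, pooled, and brought to 0.5% NP-40 at 4°C; soluble protein was the supernatant after 21,000xg for 90 min. Soluble protein was quantified by TMTpro 16plex LC-MS/MS with channel sums equalised, and reported as log2 fold change in thermal stability against DMSO controls, with values from duplicates.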

[1] = compound: CC(=O)c1cnc2ccc(-c3cc(Cl)c(O)c(Cl)c3)nc2c1N[C@H]1CC[C@H](CN(C)C)CC1
How it was run: as §1

ralimetinib = compound: CC(C)(C)Cn1c(N)nc2ccc(-c3[nH]c(C(C)(C)C)nc3-c3ccc(F)cc3)nc21 [ralimetinib]
How it was run: as §1

[2] = compound: CC(C)(O)CC(=O)NCCn1ccc2ncnc(Nc3ccc(Oc4cccc(C(F)(F)F)c4)c(Cl)c3)c21
How it was run: as §1

[3] = compound: CC(C)C1=C2N=C(C=C(N2N=C1)NCC3=CC=CC=C3)NCCCCCCN
How it was run: as §1

[4] = compound: CC1=C(C(CC(=O)N1)C2=CC=C(C=C2)C(F)(F)F)C(=O)NC3=C(C=C4C(=C3)C=NN4)F
How it was run: as §1

[5] = compound: CC1=C(C2=C(C=C1)C(=O)C3=CC=CC=C3N2CCCN)C
How it was run: as §1

[6] = compound: CC1=C(C=C(C=C1)NC(=O)C2=CC(=CC=C2)C(C)(C)C#N)NC3=CC4=C(C=C3)N=CN(C4=O)C
How it was run: as §1

[7] = compound: CC1=C(C=C(C=C1)NC(=O)C2=CC(=CC=C2)N(C)C)NC(=O)C3=CC=C(C=C3)O
How it was run: as §1

[8] = compound: CC1=CC=C(C=C1)SC2=C3C=C(SC3=CN=C2)C(=O)N
How it was run: as §1

Measured: log2 fold change

KAZN (UniProt Q674X7)
inactive: ibrutinib 0.06 | [1] -0.017 | ralimetinib 0.04 | [2] -0.068 | [3] 0 | [4] -0.003 | [5] -0.009 | [6] 0.01 | [7] -0.07 | [8] -0.018

KATNB1 (UniProt Q9BVA0)
inactive: ibrutinib 0.024 | [1] 0.012 | ralimetinib -0.012 | [2] 0.012 | [3] -0.001 | [4] 0.055 | [5] 0.006 | [6] 0.026 | [7] 0.003 | [8] 0.024

ISYNA1 (UniProt Q9NPH2)
inactive: ibrutinib 0.028 | [1] 0.015 | ralimetinib 0.045 | [2] -0.056 | [3] 0.012 | [4] 0 | [5] -0.028 | [6] -0.011 | [7] 0 | [8] -0.011

ITPK1 (UniProt Q13572)
inactive: ibrutinib 0.017 | [1] -0.015 | ralimetinib 0.052 | [2] -0.055 | [3] 0.011 | [4] 0.01 | [5] -0.07 | [6] 0.017 | [7] 0.085 | [8] 0.042

ISOC2 (UniProt Q96AB3)
inactive: ibrutinib 0.017 | [1] -0.021 | ralimetinib 0.056 | [2] 0.024 | [3] 0.014 | [4] -0.004 | [5] -0.131 | [6] 0.054 | [7] 0.041 | [8] 0.035

ITPKA (UniProt P23677)
inactive: ibrutinib 0.043 | [1] -0.009 | ralimetinib 0.007 | [2] -0.044 | [3] 0.011 | [4] 0.023 | [5] 0.002 | [6] -0.012 | [7] 0.022 | [8] 0.026

ITFG1 (UniProt Q8TB96)
inactive: ibrutinib 0.019 | [1] -0.019 | ralimetinib -0.006 | [2] -0.02 | [3] -0.044 | [4] 0.007 | [5] 0.008 | [6] -0.014 | [7] 0.012 | [8] -0.078

JAGN1 (UniProt Q8N5M9)
inactive: ibrutinib 0.083 | [1] 0.036 | ralimetinib -0.007 | [2] 0.062 | [3] -0.023 | [4] 0.022 | [5] -0.028 | [6] -0.008 | [7] 0.004 | [8] 0.012

KCT2 (UniProt Q8NC54)
inactive: ibrutinib 0.025 | [1] 0.018 | ralimetinib 0.038 | [2] -0.076 | [3] -0.015 | [4] 0.008 | [5] -0.034 | [6] -0.025 | [7] 0.004 | [8] -0.024

ISCA2 (UniProt Q86U28)
inactive: ibrutinib 0.114 | [1] 0.028 | ralimetinib 0.051 | [2] -0.026 | [3] 0.025 | [4] -0.14 | [5] 0.024 | [6] 0.011 | [7] -0.047 | [8] 0.019

IRF2BPL (UniProt Q9H1B7)
inactive: ibrutinib 0.052 | [1] 0.004 | ralimetinib 0.039 | [2] 0.026 | [3] -0.026 | [4] 0.02 | [5] -0.018 | [6] 0.045 | [7] 0.029 | [8] -0.038

IRAK1 (UniProt P51617)
inactive: ibrutinib 0.032 | [1] 0.195 | ralimetinib -0.024 | [2] -0.031 | [3] -0.018 | [4] -0.013 | [5] -0.028 | [6] -0.086 | [7] 0.062 | [8] 0

ITSN1 isoform 8 (UniProt Q15811)
inactive: ibrutinib -0.019 | [1] 0.015 | ralimetinib -0.002 | [2] -0.019 | [3] 0.005 | [4] 0.02 | [5] -0.09 | [6] 0.007 | [7] -0.043 | [8] 0

KCTD15 (UniProt Q96SI1)
inactive: ibrutinib 0.029 | [1] -0.017 | ralimetinib 0.064 | [2] 0.055 | [3] 0.002 | [4] 0.032 | [5] -0.021 | [6] -0.02 | [7] -0.021 | [8] -0.013

IRGQ (UniProt Q8WZA9)
inactive: ibrutinib 0.049 | [1] 0.001 | ralimetinib -0.008 | [2] -0.051 | [3] -0.032 | [4] -0.002 | [5] 0.006 | [6] 0.007 | [7] 0.013 | [8] -0.023

INTS9 (UniProt Q9NV88)
inactive: ibrutinib 0.053 | [1] -0.053 | ralimetinib 0.035 | [2] -0.045 | [3] -0.004 | [4] 0.014 | [5] 0.002 | [6] 0.038 | [7] -0.026 | [8] -0.057

IRS2 (UniProt Q9Y4H2)
inactive: ibrutinib -0.089 | [1] -0.209 | ralimetinib 0.014 | [2] 0.047 | [3] 0.03 | [4] 0.049 | [5] -0.079 | [6] 0.118 | [7] -0.051 | [8] 0.254

IRF3 (UniProt Q14653)
inactive: ibrutinib 0.011 | [1] 0.033 | ralimetinib 0.036 | [2] -0.016 | [3] -0.005 | [4] 0.019 | [5] -0.004 | [6] 0.037 | [7] -0.049 | [8] 0.006

IQSEC1 (UniProt Q6DN90)
inactive: ibrutinib 0.001 | [1] 0.011 | ralimetinib 0.002 | [2] 0.002 | [3] -0.005 | [4] 0.025 | [5] -0.008 | [6] 0.024 | [7] 0.063 | [8] 0.033

ISY1 isoform 1 (UniProt Q9ULR0)
inactive: ibrutinib 0.019 | [1] 0.028 | ralimetinib 0.007 | [2] -0.029 | [3] -0.056 | [4] -0.019 | [5] -0.157 | [6] -0.006 | [7] -0.02 | [8] -0.04

ITGAE (UniProt P38570)
inactive: ibrutinib 0.091 | [1] 0.037 | ralimetinib 0.097 | [2] -0.013 | [3] -0.189 | [4] -0.108 | [7] 0.229 | [8] -0.135

ITPRID2 (UniProt P28290)
inactive: ibrutinib -0.033 | [1] -0.069 | ralimetinib 0.064 | [2] 0 | [3] 0.09 | [4] -0.056 | [7] 0.004 | [8] 0.109

Copied from above (7 entries):
KCTD15 (UniProt Q96SI1)
inactive: ibrutinib 0.029 | [1] -0.017 | ralimetinib 0.064 | [2] 0.055 | [3] 0.002 | [4] 0.032 | [5] -0.021 | [6] -0.02 | [7] -0.021 | [8] -0.013

IRGQ (UniProt Q8WZA9)
inactive: ibrutinib 0.049 | [1] 0.001 | ralimetinib -0.008 | [2] -0.051 | [3] -0.032 | [4] -0.002 | [5] 0.006 | [6] 0.007 | [7] 0.013 | [8] -0.023

INTS9 (UniProt Q9NV88)
inactive: ibrutinib 0.053 | [1] -0.053 | ralimetinib 0.035 | [2] -0.045 | [3] -0.004 | [4] 0.014 | [5] 0.002 | [6] 0.038 | [7] -0.026 | [8] -0.057

IRS2 (UniProt Q9Y4H2)
inactive: ibrutinib -0.089 | [1] -0.209 | ralimetinib 0.014 | [2] 0.047 | [3] 0.03 | [4] 0.049 | [5] -0.079 | [6] 0.118 | [7] -0.051 | [8] 0.254

IRF3 (UniProt Q14653)
inactive: ibrutinib 0.011 | [1] 0.033 | ralimetinib 0.036 | [2] -0.016 | [3] -0.005 | [4] 0.019 | [5] -0.004 | [6] 0.037 | [7] -0.049 | [8] 0.006

IQSEC1 (UniProt Q6DN90)
inactive: ibrutinib 0.001 | [1] 0.011 | ralimetinib 0.002 | [2] 0.002 | [3] -0.005 | [4] 0.025 | [5] -0.008 | [6] 0.024 | [7] 0.063 | [8] 0.033

ISY1 isoform 1 (UniProt Q9ULR0)
inactive: ibrutinib 0.019 | [1] 0.028 | ralimetinib 0.007 | [2] -0.029 | [3] -0.056 | [4] -0.019 | [5] -0.157 | [6] -0.006 | [7] -0.02 | [8] -0.04

The listing continues.

KCNK1 (UniProt O00180)
inactive: ibrutinib -0.084 | [1] 0.06 | [3] -0.031 | [4] -0.059 | [5] -0.171 | [8] -0.036

JMJD6 isoform 3 (UniProt Q6NYC1)
inactive: ibrutinib -0.045 | [1] 0 | ralimetinib 0.076 | [2] 0.028 | [3] 0 | [4] -0.021 | [5] 0.008 | [6] -0.03 | [7] 0.022 | [8] -0.026

IRF2BP1 (UniProt Q8IU81)
inactive: ibrutinib 0.003 | [1] 0.027 | ralimetinib 0.008 | [2] 0.02 | [3] 0.006 | [4] -0.016 | [5] -0.027 | [6] 0.02 | [7] -0.001 | [8] -0.038

ITM2B (UniProt Q9Y287)
inactive: ibrutinib -0.04 | ralimetinib 0.131 | [2] -0.106 | [3] -0.044 | [4] 0.051 | [5] -0.011 | [6] 0.019 | [7] -0.088

ITPR1 (UniProt Q14643)
inactive: ibrutinib -0.095 | [1] -0.03 | ralimetinib -0.009 | [2] -0.133 | [6] -0.064 | [7] 0.087 | [8] -0.057
